Test results published in US20190153112A1 (IMMUTEP S A S, published 2019).
Results are given in words; binding and its absence hold for the method and conditions named. Some binding calls cover weakened binding; strength is not graded here. Tags and fused reporters may be left off the sequences shown.

T1: IMP321 (recombinant soluble human LAG-3Ig fusion protein) (human) (UniProt P18627)
T1 sequence (looked up): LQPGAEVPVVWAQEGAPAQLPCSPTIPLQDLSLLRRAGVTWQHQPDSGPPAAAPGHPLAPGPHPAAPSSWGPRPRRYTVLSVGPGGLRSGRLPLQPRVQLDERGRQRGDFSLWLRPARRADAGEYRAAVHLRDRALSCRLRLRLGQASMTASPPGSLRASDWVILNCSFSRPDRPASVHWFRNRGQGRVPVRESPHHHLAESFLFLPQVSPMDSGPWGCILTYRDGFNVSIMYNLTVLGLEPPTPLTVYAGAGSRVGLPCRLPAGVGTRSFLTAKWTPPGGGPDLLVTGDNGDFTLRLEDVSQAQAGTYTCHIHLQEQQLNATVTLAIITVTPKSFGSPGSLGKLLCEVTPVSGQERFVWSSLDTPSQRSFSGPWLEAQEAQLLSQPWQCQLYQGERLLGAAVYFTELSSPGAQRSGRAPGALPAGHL

B1: humanized 13E2 monoclonal antibody IMP761 (antibody, human IgG4 S228P, kappa, V domains shown)
VH: QITLKESGPTLVKPTQTLTLTCTFSGFSLSTSGMGLGWIRQPPGKTLEWLTHIWWDDIKRYNPDLRSRLSITKDTSKNQVVLTMTNMDPLDTGTYYCARIVEGSYSSSYFDVWGQGTLVTVSS
VL: DIVMTQTPSSLSASVGDRVTITCKASQDVIFDVAWYQQRPGQAPKLLIYSASSRVSGVPSRFSGSGSGTDFTLTISSLQPEDFATYYCQQHYSTPYTFGQGTRLDIKR
notes: Human IgG4 (S228P) with kappa light chain; also called humanized 13E2 IgG4; VH4/VL3
B2: chimeric 13E2-human IgG4 antibody Chim13E2IgG4 (antibody, V domains shown)
VH: QVTLKESGPGILQPSQTLSLTCSFSGFSLSTSGMGLGWIRQPSGKGLEWLTHIWWDDIKRYNPDLRSRLTISKDTSSSQIFLKIASVDTADTATYYCARIVEGSYSSSYFDVWGAGTTVTVSS
VL: DIVMTQPHKFMSTSVEDRVTITCKASQDVIFDVAWYQQKPGQSPKLLIYSASSRVSGVPDRFTGSGSGTDFTFTISSVQAEDLAVYYCQQHYSTPYTFGGGTTLEIKR
notes: The light chain is the 13E2 VL with wild-type human kappa; also called chimeric 13E2 IgG4; heavy chain 13E2IgG4mut

Target: T1, IMP321 (recombinant soluble human LAG-3Ig fusion protein) (human)
Experiment: Biacore SPR

Binder	binding
B1	binds
B2	binds
